The supplement of paper PMC8728848
Some of the results follow.

Tests used:
Assay in all cases: glycan array binding signal (z-score within array); higher = stronger binding
Conditions in all cases: glycan notation: IUPAC condensed, linker removed
[1] = target: Gal(a1-3)[Gal(a1-4)]Gal(b1-4)GlcNAc
In short: (§1)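 The binding signal is a Z-score computed within each array and averaged over linkers. Arrays of the same protein sequence at different concentrations or buffers were also averaged together. Data originate from 3228 arrays in the Consortium for Functional Glycomics database, kept only where the protein sequence was available.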

[2] = target: Gal(a1-4)Gal(b1-3)GlcNAc(b1-2)Man(a1-3)[Gal(a1-4)Gal(b1-3)GlcNAc(b1-2)Man(a1-6)]Man(b1-4)GlcNAc(b1-4)GlcNAc
In short: as §1

[3] = target: Gal(a1-4)Gal(b1-4)Glc
In short: as §1

[4] = target: Gal(a1-4)Gal(b1-4)GlcNAc
In short: as §1

[5] = target: Gal(a1-4)Gal(b1-4)GlcNAc(b1-2)Man(a1-3)[Gal(a1-4)Gal(b1-4)GlcNAc(b1-2)Man(a1-6)]Man(b1-4)GlcNAc(b1-4)GlcNAc
In short: as §1

[6] = target: Gal(a1-4)Gal(b1-4)GlcNAc(b1-3)Gal(b1-4)Glc
In short: as §1

[7] = target: Gal(a1-4)GlcNAc
In short: as §1

[8] = target: Gal(a1-6)Glc
In short: as §1

[9] = target: Gal(b1-2)Gal
In short: as §1

[10] = target: Gal(b1-3)Gal
In short: as §1

[11] = target: Gal(b1-3)Gal(b1-4)GlcNAc
In short: as §1

[12] = target: Gal(b1-3)GalNAc
In short: as §1

[13] = target: Gal(b1-3)GalNAc(a1-3)[Fuc(a1-2)]Gal(b1-4)Glc
In short: as §1

[14] = target: Gal(b1-3)GalNAc(a1-3)[Fuc(a1-2)]Gal(b1-4)GlcNAc
In short: as §1

[15] = target: Gal(b1-3)GalNAc(b1-3)Gal
In short: as §1

[16] = target: Gal(b1-3)GalNAc(b1-3)Gal(a1-4)Gal(b1-4)Glc
In short: as §1

[17] = target: Gal(b1-3)GalNAc(b1-4)Gal(b1-4)Glc
In short: as §1

[18] = target: Gal(b1-3)GalNAc(b1-4)[Neu5Ac(a2-3)]Gal(b1-4)Glc
In short: as §1

[19] = target: Gal(b1-3)GlcNAc
In short: as §1

[20] = target: Gal(b1-3)GlcNAc(a1-3)Gal(b1-4)GlcNAc
In short: as §1

[21] = target: Gal(b1-3)GlcNAc(a1-6)Gal(b1-4)GlcNAc
In short: as §1

[22] = target: Gal(b1-3)GlcNAc(b1-2)Man
In short: as §1

[23] = target: Gal(b1-3)GlcNAc(b1-2)Man(a1-3)[Gal(b1-3)GlcNAc(b1-2)Man(a1-6)]Man(b1-4)GlcNAc(b1-4)GlcNAc
In short: as §1

[24] = target: Gal(b1-3)GlcNAc(b1-2)Man(a1-3)[Gal(b1-3)GlcNAc(b1-2)Man(a1-6)]Man(b1-4)GlcNAc(b1-4)[Fuc(a1-6)]GlcNAc
In short: as §1

[25] = target: Gal(b1-3)GlcNAc(b1-2)Man(a1-3)[GlcNAc(b1-4)][Gal(b1-3)GlcNAc(b1-2)Man(a1-6)]Man(b1-4)GlcNAc(b1-4)GlcNAc
In short: as §1

[26] = target: Gal(b1-3)GlcNAc(b1-2)[Gal(b1-3)GlcNAc(b1-6)]Man(a1-6)[Gal(b1-3)GlcNAc(b1-2)Man(a1-3)]Man(b1-4)GlcNAc(b1-4)GlcNAc
In short: as §1

[27] = target: Gal(b1-3)GlcNAc(b1-3)Gal(b1-3)GlcNAc
In short: as §1

[28] = target: Gal(b1-3)GlcNAc(b1-3)Gal(b1-4)Glc
In short: as §1

[29] = target: Gal(b1-3)GlcNAc(b1-3)Gal(b1-4)GlcNAc
In short: as §1

[30] = target: Gal(b1-3)GlcNAc(b1-3)Gal(b1-4)GlcNAc(b1-2)Man(a1-3)[Gal(b1-3)GlcNAc(b1-3)Gal(b1-4)GlcNAc(b1-2)Man(a1-6)]Man(b1-4)GlcNAc(b1-4)GlcNAc
In short: as §1

[31] = target: Gal(b1-3)GlcNAc(b1-3)Gal(b1-4)GlcNAc(b1-2)[Gal(b1-3)GlcNAc(b1-3)Gal(b1-4)GlcNAc(b1-6)]Man(a1-6)[Gal(b1-3)GlcNAc(b1-3)Gal(b1-4)GlcNAc(b1-2)Man(a1-3)]Man(b1-4)GlcNAc(b1-4)[Fuc(a1-6)]GlcNAc
In short: as §1

[32] = target: Gal(b1-3)GlcNAc(b1-3)Gal(b1-4)GlcNAc(b1-3)Gal(b1-4)GlcNAc(b1-2)[Gal(b1-3)GlcNAc(b1-3)Gal(b1-4)GlcNAc(b1-3)Gal(b1-4)GlcNAc(b1-6)]Man(a1-6)[Gal(b1-3)GlcNAc(b1-3)Gal(b1-4)GlcNAc(b1-3)Gal(b1-4)GlcNAc(b1-2)Man(a1-3)]Man(b1-4)GlcNAc(b1-4)[Fuc(a1-6)]GlcNAc
In short: as §1

[33] = target: Gal(b1-3)GlcNAc(b1-3)Gal(b1-4)GlcNAc(b1-6)[Gal(b1-3)GlcNAc(b1-3)]Gal(b1-4)Glc
In short: as §1

[34] = target: Gal(b1-3)GlcNAc(b1-3)Gal(b1-4)[Fuc(a1-3)]GlcNAc
In short: as §1

[35] = target: Gal(b1-3)GlcNAc(b1-3)Gal(b1-4)[Fuc(a1-3)]GlcNAc(b1-6)[Gal(b1-3)GlcNAc(b1-3)]Gal(b1-4)Glc
In short: as §1

[36] = target: Gal(b1-3)GlcNAc(b1-3)GalNAc
In short: as §1

[37] = target: Gal(b1-3)GlcNAc(b1-6)Gal(b1-4)GlcNAc
In short: as §1

[38] = target: Gal(b1-3)GlcNAc(b1-6)GalNAc
In short: as §1

B1: PX14343C-bfa-541-26-541 (Bacteroides fragilis) (protein)
chain: KAPLDEIADDSFWSDETLVKYYVNDLYSEISVDGLQLQENRSDNSVSAQRDKYRASWFKFNYDMVSASDPQDDDVWEDYYVKVRKCNRFFERIGTSTIEESEKSRLTGEVHFLRAMFYFEMVKRYGGVILLDKVLTMEDNWEIPRSSEKECYDFILEDLKKATEMLPASYGSREKGRATKGAAYALKSRVELYDKRYEDVIKSCAEVYKLGYELVDGTTPEKYRSIWWTTNKDNKEIIFDVQYKSPDVYNNMMVCNMVTYINDKYGDRGWGGLGPTQELIDAFEMADGTPATQYSQAPADQVFDINTCGIYEGREPRFYANIVFHGSQIFFNADKGAVTVDRYLMDTPDKGDGSLTGYNVWKWIDYDNYNYPYAGAGSPDFSTNWIILRYAEIYLNDAEARLETGDVEGARKAVNMIRQRVGLPDLTESDPEKLRELIRKERRIEFAFEEQRFYDVRRWKIGPETQTTLHGVRFVSPTEFKVTKTDIRTWNDRLYLTPVPHDEIVRSSVLKQNLGY
Question: What does the source list for B1?
Answer: glycan array binding signal (z-score) [1]: 0.804; glycan array binding signal (z-score) [2]: 0.351; glycan array binding signal (z-score) [3]: 1.07; glycan array binding signal (z-score) [4]: -0.894; glycan array binding signal (z-score) [5]: -0.252; glycan array binding signal (z-score) [6]: -0.346; glycan array binding signal (z-score) [7]: -0.445; glycan array binding signal (z-score) [8]: -1.09; glycan array binding signal (z-score) [9]: -0.389; glycan array binding signal (z-score) [10]: 0.156; glycan array binding signal (z-score) [11]: 0.007; glycan array binding signal (z-score) [12]: 0.283; glycan array binding signal (z-score) [13]: -0.508; glycan array binding signal (z-score) [14]: -1.13; glycan array binding signal (z-score) [15]: -0.768; glycan array binding signal (z-score) [16]: -0.233; glycan array binding signal (z-score) [17]: -0.284; glycan array binding signal (z-score) [18]: -0.243; glycan array binding signal (z-score) [19]: -0.472; glycan array binding signal (z-score) [20]: -1.03; glycan array binding signal (z-score) [21]: -0.071; glycan array binding signal (z-score) [22]: 0.108; glycan array binding signal (z-score) [23]: 2.98; glycan array binding signal (z-score) [24]: 0.747; glycan array binding signal (z-score) [25]: -0.624; glycan array binding signal (z-score) [26]: 0.558; glycan array binding signal (z-score) [27]: 0.115; glycan array binding signal (z-score) [28]: 0.369; glycan array binding signal (z-score) [29]: 1.35; glycan array binding signal (z-score) [30]: 1.24; glycan array binding signal (z-score) [31]: 0.437; glycan array binding signal (z-score) [32]: 1.66; glycan array binding signal (z-score) [33]: -0.748; glycan array binding signal (z-score) [34]: -0.314; glycan array binding signal (z-score) [35]: -0.365; glycan array binding signal (z-score) [36]: 0.08; glycan array binding signal (z-score) [37]: -0.475; glycan array binding signal (z-score) [38]: -0.625
